Read-outs that look alike come from different tables or passages of the source. These are yes or no findings as the source states them, for the method shown. In cells and extracts the contact can be indirect. A yes stands for co-enrichment or nearness to the bait. Other partners may have been found. Where a sequence is shown, tags or fusion partners need not be part of it. One block for each molecule: values may come before it.
Key:
Assay in all cases: affinity purification with mass spectrometry
[1] = molecular target: T1, Halo-tagged BRMS1^S237D
T1 sequence: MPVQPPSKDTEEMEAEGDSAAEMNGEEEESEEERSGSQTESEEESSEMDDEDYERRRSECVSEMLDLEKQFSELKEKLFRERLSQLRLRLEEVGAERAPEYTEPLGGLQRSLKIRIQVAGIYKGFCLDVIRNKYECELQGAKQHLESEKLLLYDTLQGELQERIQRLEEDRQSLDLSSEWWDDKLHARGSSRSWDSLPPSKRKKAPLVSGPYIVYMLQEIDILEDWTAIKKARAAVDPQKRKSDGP

By UniProt entry, the sequences of proteins in these tests, tags left out.
UniProt Q13547: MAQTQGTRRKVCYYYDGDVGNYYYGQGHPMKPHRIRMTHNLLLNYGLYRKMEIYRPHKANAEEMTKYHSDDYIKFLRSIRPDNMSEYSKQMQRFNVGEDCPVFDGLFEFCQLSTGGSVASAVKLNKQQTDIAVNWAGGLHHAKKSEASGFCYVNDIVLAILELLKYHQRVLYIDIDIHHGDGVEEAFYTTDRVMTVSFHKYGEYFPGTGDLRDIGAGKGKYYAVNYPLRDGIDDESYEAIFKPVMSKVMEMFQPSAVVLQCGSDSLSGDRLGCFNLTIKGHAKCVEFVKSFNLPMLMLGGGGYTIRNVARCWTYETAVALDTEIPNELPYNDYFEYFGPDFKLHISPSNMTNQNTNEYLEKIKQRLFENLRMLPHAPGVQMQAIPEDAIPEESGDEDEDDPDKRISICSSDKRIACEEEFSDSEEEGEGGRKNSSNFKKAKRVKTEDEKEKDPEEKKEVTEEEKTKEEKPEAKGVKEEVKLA
UniProt Q92769: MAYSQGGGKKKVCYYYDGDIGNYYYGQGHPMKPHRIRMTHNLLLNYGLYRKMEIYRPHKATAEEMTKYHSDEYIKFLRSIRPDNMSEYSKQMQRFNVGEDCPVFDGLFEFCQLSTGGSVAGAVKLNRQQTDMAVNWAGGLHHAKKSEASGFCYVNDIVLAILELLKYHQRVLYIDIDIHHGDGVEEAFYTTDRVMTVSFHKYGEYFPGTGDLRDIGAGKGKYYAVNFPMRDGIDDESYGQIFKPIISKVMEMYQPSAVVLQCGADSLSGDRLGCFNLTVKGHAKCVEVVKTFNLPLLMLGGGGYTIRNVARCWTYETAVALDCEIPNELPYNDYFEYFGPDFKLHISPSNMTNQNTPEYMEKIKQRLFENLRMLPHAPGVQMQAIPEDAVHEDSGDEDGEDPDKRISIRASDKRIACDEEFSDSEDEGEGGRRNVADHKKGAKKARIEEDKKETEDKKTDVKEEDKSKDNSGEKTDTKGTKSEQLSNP

[2] = molecular target: T2, Halo-tagged BRMS1^S237A
T2 sequence: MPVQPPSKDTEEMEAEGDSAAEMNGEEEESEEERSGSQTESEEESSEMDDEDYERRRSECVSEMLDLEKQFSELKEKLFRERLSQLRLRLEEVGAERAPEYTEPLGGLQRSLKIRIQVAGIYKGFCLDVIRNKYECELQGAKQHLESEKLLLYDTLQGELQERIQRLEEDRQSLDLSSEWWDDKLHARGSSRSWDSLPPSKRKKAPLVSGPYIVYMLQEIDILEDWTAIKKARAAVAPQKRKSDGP

[3] = molecular target: T3, Halo-tagged BRMS1 wild-type (BRMS1^WT)
T3 sequence: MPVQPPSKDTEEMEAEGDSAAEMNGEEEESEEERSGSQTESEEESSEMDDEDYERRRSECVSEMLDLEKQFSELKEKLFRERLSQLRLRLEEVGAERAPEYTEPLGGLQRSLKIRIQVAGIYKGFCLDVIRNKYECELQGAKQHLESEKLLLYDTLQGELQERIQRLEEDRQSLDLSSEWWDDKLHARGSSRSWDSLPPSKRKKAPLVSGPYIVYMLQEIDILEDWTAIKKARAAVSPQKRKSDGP

[4] = molecular target: T1, Halo-tagged BRMS1^S237D; remark: listed apart in the source
[5] = molecular target: T2, Halo-tagged BRMS1^S237A; remark: listed apart in the source
[6] = molecular target: T3, Halo-tagged BRMS1 wild-type (BRMS1^WT); remark: listed apart in the source
[7] = molecular target: T4, Halo-tagged BRMS1 aa 1-229 (BRMS1^1-229)
T4 sequence: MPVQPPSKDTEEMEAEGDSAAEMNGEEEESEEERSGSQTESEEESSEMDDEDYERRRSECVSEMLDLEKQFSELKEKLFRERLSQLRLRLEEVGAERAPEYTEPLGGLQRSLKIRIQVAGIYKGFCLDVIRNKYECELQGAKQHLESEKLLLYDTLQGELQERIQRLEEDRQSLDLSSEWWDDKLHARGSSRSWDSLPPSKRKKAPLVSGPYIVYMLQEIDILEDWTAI

Molecule: Cyclin Dependent Kinase Inhibitor 2A (CDKN2A) (human (endogenous in HEK293T))
- binding [3]: binds

Molecule: HDAC1 (from UniProt Q13547 1-482)
- binding [1]: binds
- binding [3]: binds

B1: BBX (protein, UniProt Q8WY36 1-941)
chain: MKGSNRNKDHSAEGEGVGKRPKRKCLQWHPLLAKKLLDFSEEEEEEDEEEDIDKVQLLGADGLEQDVGETEDDESPEQRARRPMNAFLLFCKRHRSLVRQEHPRLDNRGATKILADWWAVLDPKEKQKYTDMAKEYKDAFMKANPGYKWCPTTNKPVKSPTPTVNPRKKLWAFPSDSSRDLPSPKKAKTEEMPQLNFGMADPTQMGGLSMLLLAGEHALGTPEVSSGTCRPDVSESPELRQKSPLFQFAEISSSTSHSDASTKQCQTSALFQFAEISSNTSQLGGAEPVKRCGKSALFQLAEMCLASEGMKMEESKLIKAKESDGGRIKELEKGKEEKEIKMEKTDETRLQKEAEFEKSAKENLRDSKELRNFEALQIDDIMAIKMEDPKEIRKEELEEDHKCSHFPDFSYSASSKIIISDVPSRKDHMCHPHGIMIIEDPAALNKPEKLKKKKKKSKMDRHGNDKSTPKKTCKKRQSSESDIESVIYTIEAVAKGDWGIEKLGDTPRKKVRTSSSGKGSILDAKPPKKKVKSREKKMSKEKSSDTTKESRPPDFISISASKNISGETPEGIKAEPLTPMEDALPPSLSGQAKPEDSDCHRKIETCGSRKSERSCKGALYKTLVSEGMLTSLRANVDRGKRSSGKGNSSDHEGCWNEESWTFSQSGTSGSKKFKKTKPKEDCLLGSAKLDEEFEKKFNSLPQYSPVTFDRKCVPVPRKKKKTGNVSSEPTKTSKGPFQSQKKNLFHKIVSKYKHKKEKPNVPEKGSGDKWSNKQLFLDAIHPTEAIFSEDRNTMEPVHKVKNIPSIFNTPEPTTTQEPLVGSQKRKARKTKITHLVRTADGRVSPAGGTLDDKPKEQLQRSLPKATETDCNDKCSHNTEVGETRSSTPEMPAVSAFFSLAALAEVAAMENVHRGQRSTPLTHDGQPKEMPQAPVLISCADQ
- binding [4]: binds
- binding [5]: binds

B2: DNA Polymerase Epsilon Subunit 2 (POLE2) (protein, UniProt P56282 1-527)
chain: MAPERLRSRALSAFKLRGLLLRGEAIKYLTEALQSISELELEDKLEKIINAVEKQPLSSNMIERSVVEAAVQECSQSVDETIEHVFNIIGAFDIPRFVYNSERKKFLPLLMTNHPAPNLFGTPRDKAEMFRERYTILHQRTHRHELFTPPVIGSHPDESGSKFQLKTIETLLGSTTKIGDAIVLGMITQLKEGKFFLEDPTGTVQLDLSKAQFHSGLYTEACFVLAEGWFEDQVFHVNAFGFPPTEPSSTTRAYYGNINFFGGPSNTSVKTSAKLKQLEEENKDAMFVFLSDVWLDQVEVLEKLRIMFAGYSPAPPTCFILCGNFSSAPYGKNQVQALKDSLKTLADIICEYPDIHQSSRFVFVPGPEDPGFGSILPRPPLAESITNEFRQRVPFSVFTTNPCRIQYCTQEITVFREDLVNKMCRNCVRFPSSNLAIPNHFVKTILSQGHLTPLPLYVCPVYWAYDYALRVYPVPDLLVIADKYDPFTTTNTECLCINPGSFPRSGFSFKVFYPSNKTVEDSKLQGF
- binding [6]: binds

Further lines, results first:

- binding [1]: binds
- binding [2]: binds
- binding [3]: binds
Molecule: HDAC2 (from UniProt Q92769 1-488)

- binding [6]: binds
- binding [7]: binds
B3: TRMT2A (TRNA Methyltransferase 2 Homolog A) (protein, UniProt Q8IZ69 1-625)
chain: MSENLDNEGPKPMESCGQESSSALSCPTVSVPPAAPAALEEVEKEGAGAATGPGPQPGLYSYIRDDLFTSEIFKLELQNVPRHASFSDVRRFLGRFGLQPHKTKLFGQPPCAFVTFRSAAERDKALRVLHGALWKGRPLSVRLARPKADPMARRRRQEGESEPPVTRVADVVTPLWTVPYAEQLERKQLECEQVLQKLAKEIGSTNRALLPWLLEQRHKHNKACCPLEGVRPSPQQTEYRNKCEFLVGVGVDGEDNTVGCRLGKYKGGTCAVAAPFDTVHIPEATKQVVKAFQEFIRSTPYSAYDPETYTGHWKQLTVRTSRRHQAMAIAYFHPQKLSPEELAELKTSLAQHFTAGPGRASGVTCLYFVEEGQRKTPSQEGLPLEHVAGDRCIHEDLLGLTFRISPHAFFQVNTPAAEVLYTVIQDWAQLDAGSMVLDVCCGTGTIGLALARKVKRVIGVELCPEAVEDARVNAQDNELSNVEFHCGRAEDLVPTLVSRLASQHLVAILDPPRAGLHSKVILAIRRAKNLRRLLYVSCNPRAAMGNFVDLCRAPSNRVKGIPFRPVKAVAVDLFPQTPHCEMLILFERVEHPNGTGVLGPHSPPAQPTPGPPDNTLQETGTFPSS

- binding [4]: binds
B4: SUDS3 (protein, UniProt Q9H7L9 1-328)
chain: MSAAGLLAPAPAQAGAPPAPEYYPEEDEELESAEDDERSCRGRESDEDTEDASETDLAKHDEEDYVEMKEQMYQDKLASLKRQLQQLQEGTLQEYQKRMKKLDQQYKERIRNAELFLQLETEQVERNYIKEKKAAVKEFEDKKVELKENLIAELEEKKKMIENEKLTMELTGDSMEVKPIMTRKLRRRPNDPVPIPDKRRKPAPAQLNYLLTDEQIMEDLRTLNKLKSPKRPASPSSPEHLPATPAESPAQRFEARIEDGKLYYDKRWYHKSQAIYLESKDNQKLSCVISSVGANEIWVRKTSDSTKMRIYLGQLQRGLFVIRRRSAA

Source: paper doi:10.1101/2021.02.04.429764
